Five molecules from publication PMC12395558 can be followed below.

Chains of the proteins cited; added tags and fusions are not shown.
UniProt Q09472: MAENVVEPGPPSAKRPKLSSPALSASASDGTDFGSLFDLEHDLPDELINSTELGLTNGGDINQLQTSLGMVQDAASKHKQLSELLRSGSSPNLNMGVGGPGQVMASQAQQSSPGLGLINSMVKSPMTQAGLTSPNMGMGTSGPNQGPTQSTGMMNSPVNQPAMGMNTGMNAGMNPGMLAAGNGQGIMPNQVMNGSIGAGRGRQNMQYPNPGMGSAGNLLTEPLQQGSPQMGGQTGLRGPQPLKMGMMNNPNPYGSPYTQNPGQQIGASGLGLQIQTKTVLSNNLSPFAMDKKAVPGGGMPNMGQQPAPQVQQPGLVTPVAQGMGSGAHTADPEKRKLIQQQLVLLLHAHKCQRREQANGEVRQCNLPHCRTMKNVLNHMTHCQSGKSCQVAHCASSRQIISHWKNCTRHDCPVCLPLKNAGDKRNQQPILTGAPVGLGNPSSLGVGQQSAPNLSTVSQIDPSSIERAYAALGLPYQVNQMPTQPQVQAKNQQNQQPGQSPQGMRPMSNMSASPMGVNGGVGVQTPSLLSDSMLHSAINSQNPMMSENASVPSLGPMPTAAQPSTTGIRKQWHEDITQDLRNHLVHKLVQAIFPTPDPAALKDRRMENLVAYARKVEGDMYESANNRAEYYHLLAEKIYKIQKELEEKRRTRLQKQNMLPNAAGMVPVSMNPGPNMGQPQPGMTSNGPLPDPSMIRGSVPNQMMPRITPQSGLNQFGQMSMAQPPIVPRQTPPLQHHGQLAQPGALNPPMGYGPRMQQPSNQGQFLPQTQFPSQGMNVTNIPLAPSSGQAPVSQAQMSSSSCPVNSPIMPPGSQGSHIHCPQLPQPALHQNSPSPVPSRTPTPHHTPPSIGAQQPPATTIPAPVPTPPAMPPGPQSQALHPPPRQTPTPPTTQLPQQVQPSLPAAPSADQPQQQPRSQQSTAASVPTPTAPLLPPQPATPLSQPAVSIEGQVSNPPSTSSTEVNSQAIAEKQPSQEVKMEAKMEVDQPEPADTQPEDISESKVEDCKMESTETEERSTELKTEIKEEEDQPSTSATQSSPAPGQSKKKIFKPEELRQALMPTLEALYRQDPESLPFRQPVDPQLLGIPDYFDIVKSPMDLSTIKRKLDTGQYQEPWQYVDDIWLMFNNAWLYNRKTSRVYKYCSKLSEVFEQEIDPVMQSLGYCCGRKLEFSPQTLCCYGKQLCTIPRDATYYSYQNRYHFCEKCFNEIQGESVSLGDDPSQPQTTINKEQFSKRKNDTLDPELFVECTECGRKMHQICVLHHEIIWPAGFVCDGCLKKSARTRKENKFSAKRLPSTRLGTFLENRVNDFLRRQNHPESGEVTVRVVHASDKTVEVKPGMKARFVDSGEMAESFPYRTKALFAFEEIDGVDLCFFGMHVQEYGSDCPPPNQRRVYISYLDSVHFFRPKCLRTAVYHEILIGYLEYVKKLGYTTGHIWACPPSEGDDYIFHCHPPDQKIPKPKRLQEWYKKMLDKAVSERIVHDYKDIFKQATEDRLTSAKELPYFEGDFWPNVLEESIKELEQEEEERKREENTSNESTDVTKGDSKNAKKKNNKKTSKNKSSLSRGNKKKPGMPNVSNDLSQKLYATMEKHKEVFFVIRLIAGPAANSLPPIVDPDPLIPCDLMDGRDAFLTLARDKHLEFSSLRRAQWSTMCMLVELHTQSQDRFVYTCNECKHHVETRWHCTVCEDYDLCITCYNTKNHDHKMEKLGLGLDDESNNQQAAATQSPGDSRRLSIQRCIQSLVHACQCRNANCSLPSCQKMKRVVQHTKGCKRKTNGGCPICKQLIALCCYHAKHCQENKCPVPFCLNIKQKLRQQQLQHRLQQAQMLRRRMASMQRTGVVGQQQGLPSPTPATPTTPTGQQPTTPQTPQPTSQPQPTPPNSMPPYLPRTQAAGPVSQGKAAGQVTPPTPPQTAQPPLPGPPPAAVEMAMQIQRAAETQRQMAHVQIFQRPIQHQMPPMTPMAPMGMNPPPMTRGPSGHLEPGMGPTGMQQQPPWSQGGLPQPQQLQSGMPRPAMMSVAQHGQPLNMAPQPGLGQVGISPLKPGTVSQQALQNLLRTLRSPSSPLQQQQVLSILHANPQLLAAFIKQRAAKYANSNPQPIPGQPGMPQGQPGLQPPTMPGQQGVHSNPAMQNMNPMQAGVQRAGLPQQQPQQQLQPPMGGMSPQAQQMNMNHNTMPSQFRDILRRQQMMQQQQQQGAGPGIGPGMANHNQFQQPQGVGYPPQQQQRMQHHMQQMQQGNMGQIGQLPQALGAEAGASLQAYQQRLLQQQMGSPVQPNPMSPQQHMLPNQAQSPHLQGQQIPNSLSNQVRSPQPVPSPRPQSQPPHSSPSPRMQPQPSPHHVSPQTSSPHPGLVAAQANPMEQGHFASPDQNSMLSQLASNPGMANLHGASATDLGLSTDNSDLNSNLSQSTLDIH
UniProt Q13547: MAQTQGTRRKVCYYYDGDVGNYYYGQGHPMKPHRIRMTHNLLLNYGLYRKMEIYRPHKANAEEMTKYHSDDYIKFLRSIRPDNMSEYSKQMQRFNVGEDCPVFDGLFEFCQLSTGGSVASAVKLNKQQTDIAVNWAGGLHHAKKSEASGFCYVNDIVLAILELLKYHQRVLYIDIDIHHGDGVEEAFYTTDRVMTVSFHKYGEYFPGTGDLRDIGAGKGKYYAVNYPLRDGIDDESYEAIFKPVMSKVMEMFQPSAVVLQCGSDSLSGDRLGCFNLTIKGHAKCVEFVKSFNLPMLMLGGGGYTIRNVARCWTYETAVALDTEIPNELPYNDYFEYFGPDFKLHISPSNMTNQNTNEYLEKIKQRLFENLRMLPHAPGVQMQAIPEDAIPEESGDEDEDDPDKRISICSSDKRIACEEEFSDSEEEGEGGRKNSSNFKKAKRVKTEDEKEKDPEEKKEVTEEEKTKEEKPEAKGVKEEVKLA

No constants are given. Whether binding was seen depends on the method and setting. In cells and extracts the contact can be indirect. Some results given as binding are weak or reduced against the parent protein; the word gives no strength. For some assays here: Sequences can lack the tags named with a protein.

For assay [1], the target named is T1, V5-GCDH (glutaryl-CoA dehydrogenase), expressed in HEK293T cells (UniProt Q92947).
T1 sequence: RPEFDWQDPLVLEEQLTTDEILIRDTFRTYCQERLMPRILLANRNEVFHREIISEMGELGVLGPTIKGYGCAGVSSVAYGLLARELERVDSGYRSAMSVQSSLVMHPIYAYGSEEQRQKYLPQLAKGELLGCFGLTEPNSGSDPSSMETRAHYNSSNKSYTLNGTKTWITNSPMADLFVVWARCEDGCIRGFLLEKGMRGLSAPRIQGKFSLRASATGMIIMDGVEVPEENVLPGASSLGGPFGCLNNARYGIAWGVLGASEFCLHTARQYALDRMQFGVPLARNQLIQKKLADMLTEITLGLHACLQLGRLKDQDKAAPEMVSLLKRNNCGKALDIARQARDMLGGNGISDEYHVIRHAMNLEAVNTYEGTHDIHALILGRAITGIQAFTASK
Kind of assay: co-IP; HEK293T cells cotransfected with the tagged proteins; lysates with specific antibodies overnight at 4 °C, protein A/G agarose beads, washed 3 times with lysis buffer, Western blot. In general terms: Immunoblotting shows a protein as a band on a membrane.

In assay [2] the target is T2, Endogenous GCDH of Huh7 cells (human (endogenous in Huh7)) (UniProt Q92947).
T2 sequence: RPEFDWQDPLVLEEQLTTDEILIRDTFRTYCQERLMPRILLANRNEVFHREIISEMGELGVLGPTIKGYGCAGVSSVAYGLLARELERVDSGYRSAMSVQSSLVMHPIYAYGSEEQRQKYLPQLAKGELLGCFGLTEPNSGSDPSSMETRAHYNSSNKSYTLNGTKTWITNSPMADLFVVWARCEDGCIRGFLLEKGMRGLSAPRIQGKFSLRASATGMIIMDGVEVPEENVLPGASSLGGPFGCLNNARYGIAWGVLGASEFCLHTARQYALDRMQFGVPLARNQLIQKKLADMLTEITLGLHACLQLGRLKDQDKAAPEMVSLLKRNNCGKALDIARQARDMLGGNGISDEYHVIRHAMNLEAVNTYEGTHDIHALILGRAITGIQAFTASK
Kind of assay: co-IP; Huh7 cells transfected with V5-HDAC1, endogenous GCDH; antibodies overnight at 4 °C, protein A/G agarose beads, Western blot.

For assay [3], the target named is Flag-P300, expressed in HEK293T cells (UniProt Q09472). Description: co-IP; HEK293T cells cotransfected with the tagged proteins; lysates with specific antibodies overnight at 4 °C, protein A/G agarose beads, washed 3 times with lysis buffer, Western blot.
Another assay addresses GST-HDAC1 fusion protein (UniProt Q13547). Description: pull-down; GST fusion protein coupled to Glutathione-Sepharose 4B beads, incubated with GCDH overexpression MHCC-97H whole-cell lysates for 2 h at 4 °C, washed 3 times, Western blot; only the target purified.
In assay [4] the target is Endogenous P300 of MHCC-97H cells (human (endogenous in MHCC-97H)) (UniProt Q09472). Kind of assay: co-IP; MHCC-97H cell lysate, endogenous proteins by the text; antibodies overnight at 4 °C, protein A/G agarose beads, Western blot.

As to “V5-HDAC1, expressed in HEK293T cells (from UniProt Q13547 1-482)”, the binding result in assay [1] is on record as “binds”.

As to “V5-HDAC1, expressed in Huh7 cells (from UniProt Q13547 1-482)”, the binding result in assay [2] is “binds”.

B1: V5-GCDH (glutaryl-CoA dehydrogenase), expressed in HEK293T cells (protein, UniProt Q92947 45-438)
chain: RPEFDWQDPLVLEEQLTTDEILIRDTFRTYCQERLMPRILLANRNEVFHREIISEMGELGVLGPTIKGYGCAGVSSVAYGLLARELERVDSGYRSAMSVQSSLVMHPIYAYGSEEQRQKYLPQLAKGELLGCFGLTEPNSGSDPSSMETRAHYNSSNKSYTLNGTKTWITNSPMADLFVVWARCEDGCIRGFLLEKGMRGLSAPRIQGKFSLRASATGMIIMDGVEVPEENVLPGASSLGGPFGCLNNARYGIAWGVLGASEFCLHTARQYALDRMQFGVPLARNQLIQKKLADMLTEITLGLHACLQLGRLKDQDKAAPEMVSLLKRNNCGKALDIARQARDMLGGNGISDEYHVIRHAMNLEAVNTYEGTHDIHALILGRAITGIQAFTASK
With B1, the binding entry in assay [3] is “binds”.

B2: GCDH overexpressed in MHCC-97H cells (protein, UniProt Q92947 45-438)
chain: RPEFDWQDPLVLEEQLTTDEILIRDTFRTYCQERLMPRILLANRNEVFHREIISEMGELGVLGPTIKGYGCAGVSSVAYGLLARELERVDSGYRSAMSVQSSLVMHPIYAYGSEEQRQKYLPQLAKGELLGCFGLTEPNSGSDPSSMETRAHYNSSNKSYTLNGTKTWITNSPMADLFVVWARCEDGCIRGFLLEKGMRGLSAPRIQGKFSLRASATGMIIMDGVEVPEENVLPGASSLGGPFGCLNNARYGIAWGVLGASEFCLHTARQYALDRMQFGVPLARNQLIQKKLADMLTEITLGLHACLQLGRLKDQDKAAPEMVSLLKRNNCGKALDIARQARDMLGGNGISDEYHVIRHAMNLEAVNTYEGTHDIHALILGRAITGIQAFTASK
Turning to B2, the binding result with GST-HDAC1 fusion protein was “binds”.

B3: Endogenous GCDH of MHCC-97H cells (protein, UniProt Q92947 45-438)
chain: RPEFDWQDPLVLEEQLTTDEILIRDTFRTYCQERLMPRILLANRNEVFHREIISEMGELGVLGPTIKGYGCAGVSSVAYGLLARELERVDSGYRSAMSVQSSLVMHPIYAYGSEEQRQKYLPQLAKGELLGCFGLTEPNSGSDPSSMETRAHYNSSNKSYTLNGTKTWITNSPMADLFVVWARCEDGCIRGFLLEKGMRGLSAPRIQGKFSLRASATGMIIMDGVEVPEENVLPGASSLGGPFGCLNNARYGIAWGVLGASEFCLHTARQYALDRMQFGVPLARNQLIQKKLADMLTEITLGLHACLQLGRLKDQDKAAPEMVSLLKRNNCGKALDIARQARDMLGGNGISDEYHVIRHAMNLEAVNTYEGTHDIHALILGRAITGIQAFTASK
With B3, the binding entry in assay [4] was “binds”.
